The other results are listed elsewhere or left out.
Compound: CC1Cc2ccccc2N1C(=O)C1CCCN(C1)C(=O)CCl (mixture of isomers) [TRIM25 ligand 11 (diastereomer mixture)]
Assay: probe-labelled cysteine peptide fold change vs DMSO (competition) (log2 fold change); higher = less target engagement (more negative = stronger competition)
Conditions: THP-1, incubation time: 4 h
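Note: competitive chemoproteomic profiling in live THP-1 cells with an iodoacetamide desthiobiotin (IA-DTB) probe, comparing probe-labelled peptide intensities in compound-treated cells against DMSO-treated controls.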

Amino acid sequences for entries named in this document (tags omitted). A change or cut given only in a name is not applied to a line headed by its entry.
UniProt Q7Z392: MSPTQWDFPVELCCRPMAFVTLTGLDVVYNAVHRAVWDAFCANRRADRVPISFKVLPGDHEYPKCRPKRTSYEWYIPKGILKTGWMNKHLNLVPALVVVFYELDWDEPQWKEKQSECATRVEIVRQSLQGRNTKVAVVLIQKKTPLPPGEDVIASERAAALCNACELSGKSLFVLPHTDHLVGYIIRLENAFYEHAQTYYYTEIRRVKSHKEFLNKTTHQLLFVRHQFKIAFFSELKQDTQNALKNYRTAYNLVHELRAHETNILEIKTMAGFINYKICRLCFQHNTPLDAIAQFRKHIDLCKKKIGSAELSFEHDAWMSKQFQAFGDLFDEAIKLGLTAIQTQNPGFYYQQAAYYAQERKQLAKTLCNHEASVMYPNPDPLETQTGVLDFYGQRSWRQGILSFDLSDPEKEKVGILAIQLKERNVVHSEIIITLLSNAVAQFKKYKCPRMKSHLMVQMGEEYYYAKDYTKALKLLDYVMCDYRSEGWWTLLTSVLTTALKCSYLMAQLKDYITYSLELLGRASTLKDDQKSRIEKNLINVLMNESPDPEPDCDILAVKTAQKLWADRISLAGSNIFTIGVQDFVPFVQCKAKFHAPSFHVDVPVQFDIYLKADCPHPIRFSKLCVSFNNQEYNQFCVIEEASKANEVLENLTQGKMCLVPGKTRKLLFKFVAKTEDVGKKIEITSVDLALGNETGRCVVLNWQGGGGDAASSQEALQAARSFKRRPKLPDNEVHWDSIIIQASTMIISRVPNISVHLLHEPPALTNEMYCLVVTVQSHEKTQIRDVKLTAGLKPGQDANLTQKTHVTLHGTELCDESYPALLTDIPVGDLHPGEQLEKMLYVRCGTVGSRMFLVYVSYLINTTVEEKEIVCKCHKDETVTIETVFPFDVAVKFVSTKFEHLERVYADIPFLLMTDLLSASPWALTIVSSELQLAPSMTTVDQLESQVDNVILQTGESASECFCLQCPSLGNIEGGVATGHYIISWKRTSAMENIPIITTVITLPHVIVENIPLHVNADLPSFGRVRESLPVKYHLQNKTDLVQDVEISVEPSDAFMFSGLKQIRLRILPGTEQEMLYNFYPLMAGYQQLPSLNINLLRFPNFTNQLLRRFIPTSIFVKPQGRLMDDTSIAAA
UniProt Q9NQ86: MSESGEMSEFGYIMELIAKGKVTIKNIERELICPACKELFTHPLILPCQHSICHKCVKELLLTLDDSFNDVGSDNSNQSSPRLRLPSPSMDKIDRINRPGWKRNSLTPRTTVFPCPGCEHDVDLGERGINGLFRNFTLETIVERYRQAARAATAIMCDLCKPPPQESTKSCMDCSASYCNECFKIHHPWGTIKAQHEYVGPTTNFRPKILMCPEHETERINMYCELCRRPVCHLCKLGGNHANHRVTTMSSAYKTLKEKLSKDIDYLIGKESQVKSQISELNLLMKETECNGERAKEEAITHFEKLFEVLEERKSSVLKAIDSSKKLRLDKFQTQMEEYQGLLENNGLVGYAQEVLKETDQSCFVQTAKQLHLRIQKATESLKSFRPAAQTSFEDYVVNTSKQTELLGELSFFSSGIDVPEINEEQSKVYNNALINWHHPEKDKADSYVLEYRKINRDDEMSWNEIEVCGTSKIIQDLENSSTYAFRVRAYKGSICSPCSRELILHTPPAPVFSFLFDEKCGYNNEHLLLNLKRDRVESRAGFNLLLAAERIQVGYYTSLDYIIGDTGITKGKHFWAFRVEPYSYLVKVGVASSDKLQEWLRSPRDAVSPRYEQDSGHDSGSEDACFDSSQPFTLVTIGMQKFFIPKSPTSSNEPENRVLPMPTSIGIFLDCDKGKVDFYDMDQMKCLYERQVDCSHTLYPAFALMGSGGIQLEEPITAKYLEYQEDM
UniProt Q14669: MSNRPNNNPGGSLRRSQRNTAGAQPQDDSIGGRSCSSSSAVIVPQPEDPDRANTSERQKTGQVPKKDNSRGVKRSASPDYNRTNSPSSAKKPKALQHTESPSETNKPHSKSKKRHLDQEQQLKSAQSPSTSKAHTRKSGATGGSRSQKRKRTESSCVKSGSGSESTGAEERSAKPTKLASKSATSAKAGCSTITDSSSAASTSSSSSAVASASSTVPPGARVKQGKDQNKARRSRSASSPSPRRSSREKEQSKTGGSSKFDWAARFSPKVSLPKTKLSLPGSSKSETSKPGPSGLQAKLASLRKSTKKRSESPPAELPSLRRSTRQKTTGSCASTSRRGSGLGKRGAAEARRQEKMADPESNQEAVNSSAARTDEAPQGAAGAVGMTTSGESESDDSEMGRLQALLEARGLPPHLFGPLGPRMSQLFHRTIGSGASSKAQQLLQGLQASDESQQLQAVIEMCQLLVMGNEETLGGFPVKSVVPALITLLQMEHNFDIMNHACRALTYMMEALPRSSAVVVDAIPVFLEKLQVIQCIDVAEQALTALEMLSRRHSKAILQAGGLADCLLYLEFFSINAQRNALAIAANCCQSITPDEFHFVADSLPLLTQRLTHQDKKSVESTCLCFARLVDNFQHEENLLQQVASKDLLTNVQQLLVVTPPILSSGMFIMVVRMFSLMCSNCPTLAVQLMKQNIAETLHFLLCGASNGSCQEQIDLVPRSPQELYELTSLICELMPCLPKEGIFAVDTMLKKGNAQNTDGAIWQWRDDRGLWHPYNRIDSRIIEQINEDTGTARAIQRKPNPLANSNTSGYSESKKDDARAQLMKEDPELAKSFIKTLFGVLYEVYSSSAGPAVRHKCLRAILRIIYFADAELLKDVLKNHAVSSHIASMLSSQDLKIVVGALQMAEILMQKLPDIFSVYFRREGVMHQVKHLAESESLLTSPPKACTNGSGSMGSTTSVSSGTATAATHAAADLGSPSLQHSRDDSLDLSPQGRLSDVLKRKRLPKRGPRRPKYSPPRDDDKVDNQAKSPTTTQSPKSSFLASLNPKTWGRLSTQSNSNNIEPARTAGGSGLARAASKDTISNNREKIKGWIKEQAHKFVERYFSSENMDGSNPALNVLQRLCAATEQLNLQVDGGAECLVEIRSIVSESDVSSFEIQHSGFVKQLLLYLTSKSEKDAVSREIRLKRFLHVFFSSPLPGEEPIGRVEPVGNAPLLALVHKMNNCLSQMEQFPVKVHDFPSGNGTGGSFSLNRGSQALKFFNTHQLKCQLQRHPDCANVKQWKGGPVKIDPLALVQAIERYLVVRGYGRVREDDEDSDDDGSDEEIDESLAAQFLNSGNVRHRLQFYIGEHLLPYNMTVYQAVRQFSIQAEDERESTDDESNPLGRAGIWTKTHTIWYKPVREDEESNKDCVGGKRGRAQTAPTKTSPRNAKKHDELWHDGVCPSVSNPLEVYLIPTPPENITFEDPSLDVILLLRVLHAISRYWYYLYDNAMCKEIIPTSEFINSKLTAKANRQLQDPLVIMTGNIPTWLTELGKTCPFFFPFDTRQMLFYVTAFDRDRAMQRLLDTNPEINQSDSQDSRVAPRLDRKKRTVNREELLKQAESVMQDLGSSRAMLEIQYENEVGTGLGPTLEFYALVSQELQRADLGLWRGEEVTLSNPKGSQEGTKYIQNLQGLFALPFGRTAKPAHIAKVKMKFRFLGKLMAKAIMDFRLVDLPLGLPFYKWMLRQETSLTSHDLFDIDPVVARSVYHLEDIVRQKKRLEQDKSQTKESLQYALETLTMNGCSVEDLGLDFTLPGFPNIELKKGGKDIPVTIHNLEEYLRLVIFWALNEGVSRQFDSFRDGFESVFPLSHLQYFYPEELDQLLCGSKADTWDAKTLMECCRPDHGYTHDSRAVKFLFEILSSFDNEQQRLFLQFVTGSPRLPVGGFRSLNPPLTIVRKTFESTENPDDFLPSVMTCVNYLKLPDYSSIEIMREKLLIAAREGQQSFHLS
UniProt Q9UL33, whole entry, looked up: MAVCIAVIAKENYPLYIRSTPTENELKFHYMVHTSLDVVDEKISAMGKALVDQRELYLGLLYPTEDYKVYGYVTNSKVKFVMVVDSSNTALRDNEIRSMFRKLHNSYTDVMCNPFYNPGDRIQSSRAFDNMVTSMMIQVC
UniProt Q14258, whole entry, looked up: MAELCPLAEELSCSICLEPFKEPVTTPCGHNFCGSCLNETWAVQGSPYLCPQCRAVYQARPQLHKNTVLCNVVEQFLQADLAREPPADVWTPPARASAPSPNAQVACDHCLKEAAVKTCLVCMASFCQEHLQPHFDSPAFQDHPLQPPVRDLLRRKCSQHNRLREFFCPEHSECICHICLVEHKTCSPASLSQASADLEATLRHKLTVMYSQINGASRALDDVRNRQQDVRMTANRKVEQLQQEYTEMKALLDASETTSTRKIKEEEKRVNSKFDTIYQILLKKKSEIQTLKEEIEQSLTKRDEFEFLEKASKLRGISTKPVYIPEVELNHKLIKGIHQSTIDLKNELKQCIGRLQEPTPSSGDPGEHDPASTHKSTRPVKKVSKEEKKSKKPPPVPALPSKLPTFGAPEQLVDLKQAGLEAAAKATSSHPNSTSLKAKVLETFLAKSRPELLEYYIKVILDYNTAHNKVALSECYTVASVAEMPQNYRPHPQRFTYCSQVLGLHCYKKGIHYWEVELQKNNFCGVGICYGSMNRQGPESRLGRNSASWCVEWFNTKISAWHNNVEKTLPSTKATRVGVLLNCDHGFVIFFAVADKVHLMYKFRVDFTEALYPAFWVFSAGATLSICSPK
UniProt P67936, whole entry: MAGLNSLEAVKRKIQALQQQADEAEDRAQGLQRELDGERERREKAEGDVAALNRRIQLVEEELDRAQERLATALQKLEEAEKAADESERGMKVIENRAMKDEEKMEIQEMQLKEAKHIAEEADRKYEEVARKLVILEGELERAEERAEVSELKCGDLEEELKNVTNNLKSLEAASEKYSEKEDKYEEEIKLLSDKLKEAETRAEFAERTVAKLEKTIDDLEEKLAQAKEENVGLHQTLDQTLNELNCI
UniProt P06753, whole entry, looked up: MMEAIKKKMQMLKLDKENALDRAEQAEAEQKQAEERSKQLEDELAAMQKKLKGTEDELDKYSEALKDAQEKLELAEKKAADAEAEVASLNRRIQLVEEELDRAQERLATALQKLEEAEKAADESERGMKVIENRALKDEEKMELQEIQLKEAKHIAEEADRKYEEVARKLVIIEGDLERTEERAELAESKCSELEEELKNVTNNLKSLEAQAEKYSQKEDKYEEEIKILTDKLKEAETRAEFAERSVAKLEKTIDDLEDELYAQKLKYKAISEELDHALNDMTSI
UniProt P29144: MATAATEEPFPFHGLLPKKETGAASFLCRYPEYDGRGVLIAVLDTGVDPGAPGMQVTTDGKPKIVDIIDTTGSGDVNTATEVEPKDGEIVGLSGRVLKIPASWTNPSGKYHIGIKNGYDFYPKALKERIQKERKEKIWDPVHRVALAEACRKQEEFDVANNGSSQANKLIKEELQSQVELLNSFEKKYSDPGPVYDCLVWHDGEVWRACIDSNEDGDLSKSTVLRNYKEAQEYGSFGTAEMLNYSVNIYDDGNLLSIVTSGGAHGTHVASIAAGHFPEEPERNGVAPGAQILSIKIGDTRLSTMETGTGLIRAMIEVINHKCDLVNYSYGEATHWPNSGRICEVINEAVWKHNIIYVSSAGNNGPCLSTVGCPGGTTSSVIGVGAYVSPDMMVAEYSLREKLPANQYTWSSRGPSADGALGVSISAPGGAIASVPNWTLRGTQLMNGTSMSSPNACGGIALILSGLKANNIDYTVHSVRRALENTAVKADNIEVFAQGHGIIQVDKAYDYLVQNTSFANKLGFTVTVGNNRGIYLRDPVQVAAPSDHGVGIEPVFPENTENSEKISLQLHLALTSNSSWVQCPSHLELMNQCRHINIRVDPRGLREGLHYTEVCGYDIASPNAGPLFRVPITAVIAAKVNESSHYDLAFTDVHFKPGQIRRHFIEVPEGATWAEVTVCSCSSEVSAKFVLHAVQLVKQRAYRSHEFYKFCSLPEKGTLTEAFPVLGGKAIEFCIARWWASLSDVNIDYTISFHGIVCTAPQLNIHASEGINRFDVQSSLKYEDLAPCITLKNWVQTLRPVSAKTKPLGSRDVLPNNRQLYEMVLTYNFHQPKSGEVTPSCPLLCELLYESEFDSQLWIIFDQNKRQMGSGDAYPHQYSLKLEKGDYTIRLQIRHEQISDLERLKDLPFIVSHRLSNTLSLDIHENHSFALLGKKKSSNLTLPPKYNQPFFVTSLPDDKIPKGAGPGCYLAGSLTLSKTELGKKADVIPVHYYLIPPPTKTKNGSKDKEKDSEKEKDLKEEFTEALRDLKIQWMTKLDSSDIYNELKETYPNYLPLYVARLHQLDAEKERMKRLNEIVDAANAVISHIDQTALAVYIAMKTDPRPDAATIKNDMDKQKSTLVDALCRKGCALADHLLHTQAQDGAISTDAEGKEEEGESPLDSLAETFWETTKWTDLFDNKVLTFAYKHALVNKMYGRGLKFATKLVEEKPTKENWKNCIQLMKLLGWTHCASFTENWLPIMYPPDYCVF

Target | probe-labelled cysteine peptide fold change (10 µM) | probe-labelled cysteine peptide fold change (50 µM)
TRIOBP_Q9H2D6_1842_SCTDVTEYAVQR (UniProt Q9H2D6) | 0.129 | 0.105
TRAPPC11_Q7Z392_615_ADCPHPIR (UniProt Q7Z392) | 0.044 | 0.152
TRIM36_Q9NQ86_53_ELFTHPLILPCQHSICHK (UniProt Q9NQ86) | -0.0673 | 0.0772
TRIM28_Q13263_713_VLLALFCHEPCRPLHQLATDSTFSLDQPGGTLDLTLIR (UniProt Q13263) | -0.0585 | -0.0188
TRIM33_Q9UPN9_849_IEPADMNESCK (UniProt Q9UPN9) | -0.0405 | -0.216
TRIP12_Q14669_332_TTGSCASTSR (UniProt Q14669) | -0.0223 | -0.118
TRIOBP_Q9H2D6_2271_GFIASQGMGNGCGR (UniProt Q9H2D6) | -0.0571 | -0.279
TRAPPC2L_Q9UL33_4_AVCIAVIAK (UniProt Q9UL33) | -0.164 | -0.222
TRIM36_Q9NQ86_48+53_ELFTHPLILPCQHSICHK (UniProt Q9NQ86) | 0.196 | 0.0972
TRIM36_Q9NQ86_499_GSICSPCSR (UniProt Q9NQ86) | -0.0502 | -0.141
TRIM33_Q9UPN9_786_QEPGTEDEICSFSGGVK (UniProt Q9UPN9) | 0.15 | -0.0533
TRIP12_Q14669_156_TESSCVK (UniProt Q14669) | -0.1 | -0.111
TRIM25_Q14258_524_NNFCGVGICYGSMNR (UniProt Q14258) | -0.0642 | 0.0911
TRIM28_Q13263_221+229_HEPLVLFCESCDTLTCR (UniProt Q13263) | 0.144 | 0.258
TRAPPC12_Q8WVT3_731_EGDSFNTQCLK (UniProt Q8WVT3) | -0.0168 | -0.069
TRMT10C_Q7L0Y3_246_RNVDPFHIYFCNLK (UniProt Q7L0Y3) | 0.0633 | 0.195
TPMT_P51580_70_VFFPLCGK (UniProt P51580) | 0.0659 | -0.0326
TPRN_Q4KMQ1_536_EAEEEEASCLLGPTLK (UniProt Q4KMQ1) | 0.175 | -0.274
TPM4_P67936_247_EENVGLHQTLDQTLNELNCI (UniProt P67936) | 0.373 | -0.123

Target | probe-labelled cysteine peptide fold change (10 µM) | probe-labelled cysteine peptide fold change (50 µM)
TRIM25_Q14258_157_CSQHNR (UniProt Q14258) | 0.411 | 0.441
TRMT1L_Q7Z2T5_320_VTINDLNENSVTLIQENCHLNK (UniProt Q7Z2T5) | -0.0172 | -0.0306
TRANK1_O15050_1158_NHVLCQEVQR (UniProt O15050) | -0.0308 | -0.166
TRAPPC11_Q7Z392_302_KHIDLCK (UniProt Q7Z392) | -0.202 | 0.0701
TRIM25_Q14258_70_NTVLCNVVEQFLQADLAR (UniProt Q14258) | -0.104 | -0.142
TRAF2_Q12933_156_HLEHECPER (UniProt Q12933) | -0.0319 | -0.0133
TPX2_Q9ULW0_594_NVTQIEPFCLETDRR (UniProt Q9ULW0) | 0.332 | 0.123
TPR_P12270_1127_AESQLLECK (UniProt P12270) | 0.0441 | 0.0191
TRIM25_Q14258_498_FTYCSQVLGLHCYK (UniProt Q14258) | -0.133 | -0.312
TRAPPC12_Q8WVT3_663_NAVANNNAAVCLLYLGK (UniProt Q8WVT3) | -0.00759 | 0.17
TPM3_P06753-2_154_CREMDEQIR (UniProt P06753) | 0.485 | 0.239
TRIM26_Q12899_334_CVTYTSLYK (UniProt Q12899) | -0.00364 | 0.0904
TRIP6_Q15654_279+282_LVHDMNHPPSGEYFGQCGGCGEDVVGDGAGVVALDR (UniProt Q15654) | -0.00459 | -0.0554
TRAF3IP3_Q9Y228_501_ELHSELDNLSDEYLSCLR (UniProt Q9Y228) | 0.0891 | 0.063
TRAPPC9_Q96Q05_904_QCHLLLDVFNSTEHELTVSTR (UniProt Q96Q05) | 0.218 | 0.122
TRIOBP_Q9H2D6_2111_SQEDGHIPPGYISQEACER (UniProt Q9H2D6) | -0.0378 | 0.00666
TPP2_P29144_322_CDLVNYSYGEATHWPNSGR (UniProt P29144) | 0.106 | 0.257
TRAPPC2L_Q9UL33_112_KLHNSYTDVMCNPFYNPGDR (UniProt Q9UL33) | 0.129 | 0.232
TPP2_P29144_342_ICEVINEAVWK (UniProt P29144) | 0.0161 | 0.0391
